Our source for the cell number change and AC50 values is PubChem BioAssay AID2685 (National Center for Advancing Translational Sciences (NCATS), 2010).

The other results are listed elsewhere or left out. These are further read-outs of the screen, such as a control signal, another cell line or another target. No call is given for them. The list favours compounds with an active or inconclusive main result. Words in brackets tell the shape of the fitted curve; partial curves, single points and poor fits give uncertain potencies.

As usually defined, the AC50 is the concentration at which the activity in the assay is half-maximal. High values mean weaker potency, low ones greater potency.

The experiment in a line: qHTS Assay for Lipid Storage Modulators in Drosophila S3 Cells.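 For cell number change: cells counted by Cell Tracker Red CMTPX staining in the red channel.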 The conditions noted are these: BODIPY lipid droplet fluorescence, 18-24 h; for cell number change: measured here: cell count max response, cells fed with added oleic acid. The method, boiled down:
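Drosophila S3 cells got compounds at several concentrations plus oleic acid (400 uM solution). Laser-scanning cytometry with 488 nm excitation read lipid droplets at 500-530 nm and cells at 575-640 nm. Percent activity was relative to 20 uM Triacsin C.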

The mark [1] stands for this setting: measured here: lipid fluorescence (Fed channel) AC50, cells fed with added oleic acid.
Setting [2] is: measured here: cell number channel AC50, cells fed with added oleic acid.

As to `Brc1cccc(CNc2nc3ccccc3n2CCN2CCOCC2)c1`, the cell number change was -2.23%. Under setting [1], the AC50 was 0.58 µM [rising, single point].

Consider `COc1ccc(N2CCN(c3ccc(S(=O)(=O)N(C(C)C)C(C)C)cn3)CC2)cc1`, for which the cell number change is -9.21%. For `CCC(C)(C)NC(=O)Cc1ccc(OC)c(OC)c1`, the cell number change turned out to be 10.9%. In addition, under setting [2], the AC50 was 0.731 µM [falling, full curve, poor fit].

Regarding `CNc1nc(Nc2ccc(C)c(Cl)c2)c2cnn(C)c2n1`, the cell number change was -23.4%. The AC50 under setting [1] is 11.6 µM [falling, partial curve]. For the compound `O=C(N1CCCC1)C(F)(F)Oc1ccc(F)cc1`, the cell number change is -22.2%. Also, the AC50 under setting [2] is 3.66 µM [falling, single point]. Further, the AC50 under setting [1] is 29.1 µM [falling, single point]. On to `C=CC(=O)N=c1sc2ccccc2n1-c1ccccc1`, for which the cell number change is -70.3%. The AC50 under setting [2] is 18.4 µM [falling, single point]. Turning to `O=C(CNS(=O)(=O)c1ccc(Br)s1)NCc1ccc2c(c1)OCO2`, the cell number change was 23.2%. In addition, the half-maximal activity concentration (AC50) under setting [1] is 4.11 µM [rising, partial curve]. For `CC(=O)Nc1ccc(S(=O)(=O)Nc2ccc(S(=O)(=O)N3CCCCCC3)cc2)cc1`, the cell number change was -6.22%. For `CCC(C)(C)NC(=O)C(c1ccc(OC)cc1)N(C(=O)CCC(=O)Nc1cc(C)on1)c1ccc2c(c1)OCO2` (configuration not stated), the cell number change turned out to be 20%. Also, under setting [1], the concentration at half-maximal activity (AC50) was 1.16 µM [rising, single point]. `COc1ccccc1N1C(=O)c2cccc3c(C(=O)O)ccc(c23)C1=O`: the cell number change was -5.48%. The concentration at half-maximal activity (AC50) under setting [1] is 0.517 µM [rising, full curve, poor fit]. On to `CS(=O)(=O)N(CC(=O)N1CCOCC1)c1cc(C(F)(F)F)ccc1Cl`, for which the cell number change was 0.265%. Also, the AC50 under setting [1] is 16.4 µM [rising, partial curve]. `O=C(O)c1ccccc1C(=O)OCCCCOC(=O)c1ccccc1C(=O)O`: the cell number change came to 3.75%. Also, the concentration at half-maximal activity (AC50) under setting [2] was 6.51 µM [rising, single point]. Also, under setting [1], the AC50 was 0.00461 µM [falling, full curve]. Turning to `CCOc1ccc2oc(C(=O)N(CCOC)c3c(N)n(CC(C)C)c(=O)[nH]c3=O)c(C)c2c1`, the cell number change is 2.27%. In addition, the concentration at half-maximal activity (AC50) under setting [2] was 1.16 µM [rising, full curve, poor fit]. Besides, under setting [1], the concentration at half-maximal activity (AC50) was 0.731 µM [rising, single point].

Consider `CN(C)S(=O)(=O)N1C(=O)c2ccccc2C1=O`, for which the cell number change was -50.4%. Further, the half-maximal activity concentration (AC50) under setting [2] is 25.9 µM [falling, partial curve]. Further, the AC50 under setting [1] was 0.092 µM [rising, full curve, poor fit]. In the case of `COc1cc(/C=C/c2nc3ccccc3c(=O)[nH]2)cc(Br)c1O`, the cell number change was determined as 8.47%. Besides, the AC50 under setting [1] was 29.1 µM [rising, single point]. Regarding `CC(C)(C)n1nc2c(c1NC(=O)Cc1cccs1)CSC2`, the cell number change is 28%. The AC50 under setting [1] is 6.51 µM [rising, full curve, poor fit].

Consider `CCc1cccc(N(C(=O)c2csnn2)C(C(=O)NC2CCCCC2)c2ccncc2)c1` (configuration not stated), for which the cell number change is -13.3%. Take `Cn1c(SCC(=O)Nc2ccccc2-c2ccccc2)nnc1-c1ccco1`: the half-maximal activity concentration (AC50) runs as follows: under setting [2], 0.731 µM [rising, full curve]; under setting [1], 0.731 µM [rising, full curve]. Regarding `CC(OC(=O)Cc1cccc(C(F)(F)F)c1)C(=O)Nc1ccc(Cl)cn1` (configuration not stated), the AC50 under setting [1] is 0.00411 µM [rising, full curve, poor fit]. Consider `CCOc1ccc(-n2c(SCC(=O)Nc3nccs3)nnc2-c2ccoc2C)cc1`, for which the cell number change turned out to be 1.17%. In addition, under setting [1], the AC50 was 9.2 µM [rising, partial curve, poor fit]. Consider `CCc1ccc(N2CCN(C(=O)c3ccc(OC)c(OC)c3)CC2)cc1`, for which the cell number change turned out to be 4.08%.

For `O=C1c2ccccc2C(=O)N1c1ncn[nH]1`, the cell number change turned out to be 19.8%. Moreover, under setting [1], the AC50 is 25.9 µM [rising, partial curve, poor fit]. Take `O=C(Nc1nnc(SCc2ccc(F)cc2)s1)C1CC(=O)N(Cc2ccccc2)C1` (configuration not stated): the cell number change stood at 32.1%. Also, the concentration at half-maximal activity (AC50) under setting [2] was 18.4 µM [rising, single point].

Consider `CCc1nccn1CCC(=O)N1CCCC(N2CCN(c3ccccc3C)CC2)C1` (configuration not stated), for which the cell number change was found to be 33%.

As for `CC(=O)Nc1ccc(-c2ccc(NC(C)=O)cc2)cc1`, the cell number change worked out at 47.4%. Further, the AC50 under setting [2] was 4.61 µM [rising, full curve]. In addition, the AC50 under setting [1] was 0.116 µM [rising, full curve, poor fit]. For the compound `COCCNc1nc(NCc2ccccc2)c2cnn(C)c2n1`, the cell number change was 20.2%. The AC50 under setting [1] was 0.00411 µM [rising, full curve, poor fit]. `CC(=O)c1c(C)[nH]c(C(=O)CN2C(=O)NC(C)(c3ccc4c(c3)OCO4)C2=O)c1C` (configuration not stated): the cell number change is -39.1%. Further, under setting [2], the AC50 is 20.6 µM [falling, single point].

Turning to `Cc1ccc(-c2csc(N3CCN(c4cc5c(cc4Cl)nc(-c4ccncc4)n5CCOCCO)CC3)n2)cc1`, the cell number change is -12.3%. On to `Cc1ccc(C(=O)NC2CC(C)(C)NC(C)(C)C2)cc1Cl`, for which the cell number change is -9.07%. In addition, under setting [1], the concentration at half-maximal activity (AC50) was 29.1 µM [rising, single point]. As to `O=C(NCCCN1CCOCC1)/C(=C/c1ccco1)NC(=O)c1ccccc1`, the cell number change was 38.2%. Under setting [2], the AC50 was 23.1 µM [rising, single point]. Moreover, the half-maximal activity concentration (AC50) under setting [1] was 0.501 µM [falling, full curve, poor fit]. With `CC1Cc2ccccc2N1C(=O)CSc1nnnn1Cc1ccccc1` (configuration not stated), the cell number change was -17.8%. Further, the AC50 under setting [2] was 0.00411 µM [falling, full curve, poor fit]. For `Cc1ccc(C)c(OCCOCCN2CC(C)OC(C)C2)c1C` (configuration not stated), the cell number change was 163%. Regarding `Cc1ccc(NC(=O)COC(=O)C2C3CC4OC(=O)C2C4C3)cc1Cl` (configuration not stated), the cell number change came to 15.8%. In addition, the AC50 under setting [1] is 5.62 µM [falling, single point].

As to `CCCn1c(CCC(=O)O)ccc1-c1ccc(OC)cc1`, the cell number change is -25.8%. Besides, the AC50 under setting [2] was 0.291 µM [falling, full curve, poor fit]. For the same compound, the concentration at half-maximal activity (AC50) under setting [1] was 1.64 µM [falling, full curve, poor fit]. As for `CN(C)C(=O)N1CCN(S(=O)(=O)c2ccc3ccccc3c2)CC1`, the cell number change stood at 7.04%. Moreover, the AC50 under setting [1] was 14.6 µM [falling, single point]. Turning to `COc1ccc(C(F)(F)F)cc1NC(=O)c1nc2nc(C)cc(C(F)F)n2n1`, the concentration at half-maximal activity (AC50) under setting [1] was 0.259 µM [falling, partial curve, poor fit].

As to `Cn1c(NC(=O)c2ccco2)c(-c2ccc(Cl)cc2)c(=O)c2ccccc21`, under setting [1], the AC50 is 6.51 µM [falling, single point]. Take `COc1ccc(C=C2C=C(C(C)(C)C)C(=O)C(C(C)(C)C)=C2)cc1OC`: the cell number change was -47%. The AC50 under setting [2] was 10.3 µM [falling, partial curve, poor fit]. Take `C=CCn1c(SCC(=O)N2CCN(c3ccccc3)CC2)nnc1-c1ccco1`: the cell number change came out at 77.7%. In addition, the AC50 under setting [2] was 20.6 µM [rising, partial curve]. Further, the AC50 under setting [1] was 20.6 µM [rising, partial curve]. Consider `O=C(CC(=O)c1ccccc1)Nc1cccnc1`, for which the cell number change was -26.3%. Besides, the AC50 under setting [1] was 2.59 µM [falling, single point]. Turning to `CCc1sc(C(=O)N2CCN(S(C)(=O)=O)CC2)cc1Br`, the AC50 is, setting by setting: under setting [2], 0.58 µM [falling, single point]; under setting [1], 0.58 µM [falling, single point]. With `Cc1cccc(OCC(=O)N/N=C/c2cn[nH]c2-c2ccc(Cl)c(Cl)c2)c1`, the cell number change is -14.4%. Also, the AC50 under setting [1] is 29.1 µM [falling, single point]. Take `CCCCN(CCCC)Cc1ccc(C(=O)NNC(=O)Nc2ccc(F)cc2)o1`: the cell number change is 35.9%. The half-maximal activity concentration (AC50) under setting [1] was 0.103 µM [falling, partial curve, poor fit]. For the compound `Cc1nn(C)cc1NC(=O)c1ccc(Br)o1`, the cell number change was found to be 5.22%. Besides, the concentration at half-maximal activity (AC50) under setting [1] was 16.4 µM [rising, single point]. As for `COCCn1c(=O)[nH]c2cc(C(=O)OC)ccc2c1=O`, the cell number change was 16.6%. Under setting [2], the half-maximal activity concentration (AC50) was 0.58 µM [rising, partial curve, poor fit]. For `CCN(C(=O)c1cc(S(=O)(=O)N2CCCCC2)c[nH]1)c1ccc(OC)cc1`, the cell number change is 28.7%. The half-maximal activity concentration (AC50) under setting [1] was 29.1 µM [rising, single point]. As to `O=c1sc2ccccc2n1COc1ccc(Cl)cc1`, the cell number change amounted to 59.6%. Also, under setting [2], the concentration at half-maximal activity (AC50) was 25.9 µM [rising, single point]. The concentration at half-maximal activity (AC50) under setting [1] is 0.731 µM [rising, full curve]. Turning to `COC(=O)c1ccc(CN2CCC(n3nccc3NC(=O)C3CCCC3)CC2)cc1`, the cell number change was 28.6%. Further, the AC50 under setting [1] is 16.4 µM [rising, partial curve, poor fit].

For `CC(=O)Nc1ccc(S(=O)(=O)c2ccc([N+](=O)[O-])cc2)cc1`, the cell number change is -26.1%. With `O=C(NCc1ccco1)c1cc(-c2ccccc2)c(N2CCOCC2)s1`, the cell number change was found to be 2.61%. Further, under setting [1], the AC50 is 2.31 µM [rising, partial curve]. For `COc1ccc(-c2nnc3cccc(Cl)n23)c(OC)c1`, the cell number change is 13.6%. For the same compound, the concentration at half-maximal activity (AC50) under setting [1] is 25.9 µM [falling, partial curve].

Regarding `CCOc1ccc(S(=O)(=O)N2CCN(C(=O)CCC(=O)N3CCOCC3)CC2)cc1`, the cell number change was 6.74%. Further, the AC50 under setting [1] is 32.6 µM [falling, single point].

With `COCCN(C(=O)Nc1ccc(OC)cc1OC)C1CCN(C(C)C)CC1`, under setting [2], the AC50 was 4.11 µM [falling, partial curve]. With `CC(=O)CSc1nnc(C(F)(F)F)n1C`, the cell number change was -20.1%. Also, the AC50 under setting [1] is 32.6 µM [falling, single point]. For the compound `CCN1C(=O)/C(=C/c2cc(C)n(C)c2C)SC1=Nc1ccc(OC)cc1`, the cell number change came out at 0.551%. Besides, the concentration at half-maximal activity (AC50) under setting [2] is 6.51 µM [rising, single point]. Further, the AC50 under setting [1] was 6.51 µM [rising, single point].

Turning to `COc1ccc(-c2cc(-n3c(C(F)(F)F)nc4ccccc43)n(CCC#N)n2)cc1`, the cell number change is -27.1%. In addition, under setting [1], the AC50 is 16.4 µM [falling, single point]. In the case of `O=C1C2C3C=CC(C4CC34)C2C(=O)N1c1cc(Cl)ccn1` (configuration not stated), the cell number change is -3.94%. In addition, the AC50 under setting [2] was 0.00517 µM [falling, full curve, poor fit]. The AC50 under setting [1] is 6.51 µM [falling, single point]. Turning to `CN1CCC(OC(=O)Cc2ccc(Cl)cc2)CC1`, the cell number change is -19.7%. Besides, under setting [1], the AC50 was 4.11 µM [falling, single point].

As to `COc1ccc(CNC(=O)C(C)n2nc(C)c3c(C)n(-c4ccc(C)cc4)nc3c2=O)cc1` (configuration not stated), the cell number change was 5.73%. Also, under setting [1], the half-maximal activity concentration (AC50) was 29.1 µM [rising, single point].
